Binding data for 1 substance are collected here from paper doi:10.1101/2024.09.15.613155.

Amino acid sequences for entries named in this document (tags omitted).
UniProt Q7TMY8: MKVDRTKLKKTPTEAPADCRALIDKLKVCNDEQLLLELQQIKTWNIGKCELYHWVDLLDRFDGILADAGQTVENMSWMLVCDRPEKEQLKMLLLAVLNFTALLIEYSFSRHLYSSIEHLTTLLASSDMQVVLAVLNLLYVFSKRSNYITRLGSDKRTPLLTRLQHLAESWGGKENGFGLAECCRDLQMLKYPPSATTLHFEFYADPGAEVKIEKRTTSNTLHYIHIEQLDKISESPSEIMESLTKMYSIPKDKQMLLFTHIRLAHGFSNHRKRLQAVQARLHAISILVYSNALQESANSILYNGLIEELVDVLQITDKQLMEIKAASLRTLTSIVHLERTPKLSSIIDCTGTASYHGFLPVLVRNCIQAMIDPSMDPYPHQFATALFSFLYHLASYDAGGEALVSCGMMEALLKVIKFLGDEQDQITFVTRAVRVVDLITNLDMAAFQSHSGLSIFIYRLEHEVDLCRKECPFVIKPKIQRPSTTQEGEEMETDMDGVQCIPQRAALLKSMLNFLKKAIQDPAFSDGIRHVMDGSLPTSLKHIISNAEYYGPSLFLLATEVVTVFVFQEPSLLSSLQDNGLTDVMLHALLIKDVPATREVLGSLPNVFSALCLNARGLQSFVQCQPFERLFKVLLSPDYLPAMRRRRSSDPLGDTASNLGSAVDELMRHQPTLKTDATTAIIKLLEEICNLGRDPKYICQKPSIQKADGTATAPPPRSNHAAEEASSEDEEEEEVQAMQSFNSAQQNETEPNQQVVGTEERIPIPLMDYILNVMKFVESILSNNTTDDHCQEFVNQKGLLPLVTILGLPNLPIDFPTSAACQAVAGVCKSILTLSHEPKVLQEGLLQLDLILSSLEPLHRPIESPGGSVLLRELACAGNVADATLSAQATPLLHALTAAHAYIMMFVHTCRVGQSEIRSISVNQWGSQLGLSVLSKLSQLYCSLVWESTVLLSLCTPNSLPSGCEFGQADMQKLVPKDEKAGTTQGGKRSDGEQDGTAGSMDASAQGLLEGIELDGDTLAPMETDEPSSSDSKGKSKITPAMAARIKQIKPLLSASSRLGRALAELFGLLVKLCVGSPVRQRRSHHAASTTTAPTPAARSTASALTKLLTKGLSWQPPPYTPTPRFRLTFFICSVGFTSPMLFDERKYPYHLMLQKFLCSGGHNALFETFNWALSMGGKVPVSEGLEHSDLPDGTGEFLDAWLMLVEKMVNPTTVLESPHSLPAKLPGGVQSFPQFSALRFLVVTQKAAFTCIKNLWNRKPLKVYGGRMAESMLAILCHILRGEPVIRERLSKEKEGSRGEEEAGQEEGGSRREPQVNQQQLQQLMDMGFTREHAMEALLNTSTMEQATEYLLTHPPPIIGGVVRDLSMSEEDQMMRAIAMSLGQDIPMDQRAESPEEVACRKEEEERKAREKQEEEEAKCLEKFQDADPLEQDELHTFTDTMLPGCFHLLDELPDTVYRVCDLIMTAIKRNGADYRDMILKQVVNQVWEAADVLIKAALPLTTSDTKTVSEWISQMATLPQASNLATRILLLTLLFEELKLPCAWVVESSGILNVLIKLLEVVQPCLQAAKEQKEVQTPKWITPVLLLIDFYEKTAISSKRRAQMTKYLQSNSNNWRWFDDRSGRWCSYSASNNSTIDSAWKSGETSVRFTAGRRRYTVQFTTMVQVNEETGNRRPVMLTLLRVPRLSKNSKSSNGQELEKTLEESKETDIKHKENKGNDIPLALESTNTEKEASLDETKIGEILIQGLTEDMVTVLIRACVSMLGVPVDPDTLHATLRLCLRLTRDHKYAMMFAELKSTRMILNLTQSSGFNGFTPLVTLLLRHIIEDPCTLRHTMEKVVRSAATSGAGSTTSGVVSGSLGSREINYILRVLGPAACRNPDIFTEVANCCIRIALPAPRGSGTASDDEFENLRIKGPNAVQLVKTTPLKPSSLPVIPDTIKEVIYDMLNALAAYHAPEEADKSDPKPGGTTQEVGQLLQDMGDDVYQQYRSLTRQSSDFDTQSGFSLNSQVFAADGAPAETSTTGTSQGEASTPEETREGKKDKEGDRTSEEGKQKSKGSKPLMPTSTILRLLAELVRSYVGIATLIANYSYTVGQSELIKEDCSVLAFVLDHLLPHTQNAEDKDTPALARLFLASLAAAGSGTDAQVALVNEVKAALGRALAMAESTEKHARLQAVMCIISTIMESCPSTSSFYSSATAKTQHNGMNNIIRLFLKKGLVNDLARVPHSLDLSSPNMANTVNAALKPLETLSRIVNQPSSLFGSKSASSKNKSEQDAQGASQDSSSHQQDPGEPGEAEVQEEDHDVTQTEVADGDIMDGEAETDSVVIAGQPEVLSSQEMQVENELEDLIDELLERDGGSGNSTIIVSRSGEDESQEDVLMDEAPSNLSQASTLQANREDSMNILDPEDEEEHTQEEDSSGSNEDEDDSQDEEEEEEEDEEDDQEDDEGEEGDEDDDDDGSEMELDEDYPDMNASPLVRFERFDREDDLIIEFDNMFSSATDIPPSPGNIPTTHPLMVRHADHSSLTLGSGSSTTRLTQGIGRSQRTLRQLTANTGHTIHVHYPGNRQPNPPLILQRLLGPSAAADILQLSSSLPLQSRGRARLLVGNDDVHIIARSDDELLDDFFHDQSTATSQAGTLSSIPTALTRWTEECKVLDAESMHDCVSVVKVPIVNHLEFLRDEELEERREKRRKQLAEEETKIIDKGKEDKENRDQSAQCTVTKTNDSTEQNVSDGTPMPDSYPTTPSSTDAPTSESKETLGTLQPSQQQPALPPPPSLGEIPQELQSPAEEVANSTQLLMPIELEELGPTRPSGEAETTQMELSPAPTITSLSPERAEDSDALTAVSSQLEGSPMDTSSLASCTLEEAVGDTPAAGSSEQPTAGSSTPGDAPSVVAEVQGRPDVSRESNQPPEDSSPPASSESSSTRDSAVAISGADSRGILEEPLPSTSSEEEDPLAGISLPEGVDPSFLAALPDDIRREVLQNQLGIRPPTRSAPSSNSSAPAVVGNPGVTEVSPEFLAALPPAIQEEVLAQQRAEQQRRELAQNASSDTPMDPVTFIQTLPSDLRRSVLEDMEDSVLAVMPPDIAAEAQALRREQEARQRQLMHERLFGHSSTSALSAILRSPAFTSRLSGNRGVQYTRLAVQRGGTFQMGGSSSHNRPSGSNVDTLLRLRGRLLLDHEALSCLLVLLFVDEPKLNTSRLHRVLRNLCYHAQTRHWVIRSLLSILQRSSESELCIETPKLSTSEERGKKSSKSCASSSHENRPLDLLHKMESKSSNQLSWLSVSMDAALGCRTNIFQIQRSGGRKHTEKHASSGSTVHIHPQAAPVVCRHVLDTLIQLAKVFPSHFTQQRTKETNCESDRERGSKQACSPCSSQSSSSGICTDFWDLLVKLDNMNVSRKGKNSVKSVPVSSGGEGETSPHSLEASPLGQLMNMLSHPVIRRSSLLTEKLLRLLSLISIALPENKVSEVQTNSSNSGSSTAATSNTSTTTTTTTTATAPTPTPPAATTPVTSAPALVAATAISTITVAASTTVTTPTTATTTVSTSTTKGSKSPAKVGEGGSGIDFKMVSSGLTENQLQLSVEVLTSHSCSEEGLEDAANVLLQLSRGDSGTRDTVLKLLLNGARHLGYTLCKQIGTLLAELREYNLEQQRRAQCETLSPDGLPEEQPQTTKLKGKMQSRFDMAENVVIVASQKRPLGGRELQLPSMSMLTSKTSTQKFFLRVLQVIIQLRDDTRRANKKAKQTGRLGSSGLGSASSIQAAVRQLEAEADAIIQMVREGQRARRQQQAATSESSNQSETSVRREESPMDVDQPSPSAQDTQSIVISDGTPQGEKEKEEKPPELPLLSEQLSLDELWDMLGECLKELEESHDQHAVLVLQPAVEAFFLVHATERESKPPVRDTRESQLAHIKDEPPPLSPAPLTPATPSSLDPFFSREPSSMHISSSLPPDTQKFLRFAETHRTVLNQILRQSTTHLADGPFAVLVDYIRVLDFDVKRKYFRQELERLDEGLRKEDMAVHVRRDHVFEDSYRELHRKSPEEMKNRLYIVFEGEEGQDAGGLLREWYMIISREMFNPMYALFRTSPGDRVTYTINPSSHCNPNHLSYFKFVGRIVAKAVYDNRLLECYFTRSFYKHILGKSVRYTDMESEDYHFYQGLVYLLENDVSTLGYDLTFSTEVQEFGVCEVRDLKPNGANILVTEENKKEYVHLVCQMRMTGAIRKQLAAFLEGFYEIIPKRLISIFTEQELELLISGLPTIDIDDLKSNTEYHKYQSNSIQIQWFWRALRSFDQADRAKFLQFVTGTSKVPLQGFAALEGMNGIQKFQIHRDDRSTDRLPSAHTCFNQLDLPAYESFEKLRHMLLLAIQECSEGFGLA
UniProt P11103: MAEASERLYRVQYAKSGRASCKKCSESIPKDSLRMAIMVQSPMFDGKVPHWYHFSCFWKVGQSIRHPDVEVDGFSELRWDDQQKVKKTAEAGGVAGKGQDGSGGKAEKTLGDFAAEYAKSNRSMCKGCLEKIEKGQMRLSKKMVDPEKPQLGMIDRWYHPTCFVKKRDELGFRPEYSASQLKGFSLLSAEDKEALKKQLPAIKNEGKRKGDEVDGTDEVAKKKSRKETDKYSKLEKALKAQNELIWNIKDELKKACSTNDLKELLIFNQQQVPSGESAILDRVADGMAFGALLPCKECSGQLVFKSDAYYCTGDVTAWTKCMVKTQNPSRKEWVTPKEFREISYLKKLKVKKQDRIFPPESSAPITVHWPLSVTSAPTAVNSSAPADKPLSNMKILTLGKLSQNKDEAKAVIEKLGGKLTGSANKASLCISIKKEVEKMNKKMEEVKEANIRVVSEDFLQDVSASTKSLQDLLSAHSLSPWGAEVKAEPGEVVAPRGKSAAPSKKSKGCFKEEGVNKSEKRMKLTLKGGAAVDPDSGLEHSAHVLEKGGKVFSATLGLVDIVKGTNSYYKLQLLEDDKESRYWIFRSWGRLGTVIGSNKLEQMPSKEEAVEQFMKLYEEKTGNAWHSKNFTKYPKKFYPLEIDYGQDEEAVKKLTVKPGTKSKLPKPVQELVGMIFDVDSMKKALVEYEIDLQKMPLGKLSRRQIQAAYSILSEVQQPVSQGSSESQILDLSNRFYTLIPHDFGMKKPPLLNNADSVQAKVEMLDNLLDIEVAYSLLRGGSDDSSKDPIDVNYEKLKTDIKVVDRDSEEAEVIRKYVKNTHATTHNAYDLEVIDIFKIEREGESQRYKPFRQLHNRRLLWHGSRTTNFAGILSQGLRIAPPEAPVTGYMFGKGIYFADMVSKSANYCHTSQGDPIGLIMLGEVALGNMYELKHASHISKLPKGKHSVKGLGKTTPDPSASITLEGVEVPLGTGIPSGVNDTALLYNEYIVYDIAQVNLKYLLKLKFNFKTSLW

In this assay the target is HUWE1 (mouse (endogenous in 32Dcl3)) (UniProt Q7TMY8). The experiment in a line: co-IP.

Results are given in words; binding and its absence hold for the method and conditions named. In cells and extracts the contact can be indirect. Some entries that bind do so weakly or less than the wild type.

For “PARP1 (from UniProt P11103 1-1013) (enzyme)”, the binding entry was “binds”.
